PMC8415707 (Frontiers in Pharmacology, 2021)

target: T1, FM-CATH (F. multistriata); assay: SPR; SPRi (PlexArray HT A100, bare gold chip); FM-CATH (2 mM) and BSA in PBS spotted on the chip, blocked with 1 M ethanolamine pH 8.5; different concentrations of proteases flowed over at 2 uL/s; regeneration with 0.5% H3PO4; both purified
T1 sequence (peptide): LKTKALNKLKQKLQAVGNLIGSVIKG

| Substance | binding |
| --- | --- |
| plasmin (enzyme) | binds |
| tPA (enzyme) | binds |
| thrombin (enzyme) | binds |

No constants are given. Whether binding was seen depends on the method and setting. Binding can be weak; no strength is given.
